Patent publication US6340705B1, “Use of α-linolenic acid metabolites for treatment or prevention of cancer” (Monsanto Technology, LLC, priority 1999, dated 2002)
At least one structure is not confirmed: it was looked up by name or label, or the drawing left a doubt.

Tested on: Min/+ mouse model of intestinal cancer
Assay: Intestinal polyp formation in the Min/+ mouse model of intestinal cancer
Type: in vivo
Conditions: Min/+ mice; for Total large intestine tumors/group, figure in brackets (animals bearing tumors/animals in group): fatty acid ethyl ester 10 g/day human equivalent dose (3% wt.) in US17 diet or sulindac 320 ppm, seven weeks
Method: The efficacy of select n-3 and n-6 polyunsaturated fatty acids was evaluated in the Min/+ mouse model of intestinal cancer. The following fatty acid ethyl esters were tested for their effect on intestinal polyp formation: 1) ALA-EE; 2) SDA-EE; 2) EPA-EE; 4) DHA-EE; 5) GLA-EE ([…], 18:3 n-6); and 6) CLA-EE (conjugated linoleic acid; c9t11-18:2 (77%)+c9c11-18:2 (18%)+other isomers (5%)).
These fatty acid ethyl esters were added to the US17 diet to provide 10 g/day human equivalent dose (3% wt.). The NSAID, sulindac (320 ppm), served as the positive control. In order to maintain a 17% fat (37 en%) content in the US17 diet, oleic acid (18:1 n-9) was removed from the US17 diet in an amount equal to the amount of the fatty acid ethyl ester that was added. Mice were received at approximately five weeks of age and were fed the test diets upon receipt. After seven weeks on the respective test diet, the mice were sacrificed and the intestinal polyps were counted and measured.

SMILES | Total large intestine tumors/group, figure in brackets (animals bearing tumors/animals in group) | effectiveness in inhibiting polyp formation and development in the large intestine (10 g/day human equivalent dose)
CC/C=C\C/C=C\C/C=C\C/C=C\C/C=C\C/C=C\CCC(=O)O [DHA, docosahexaenoic acid] | 9/10 | –
CC/C=C\C/C=C\C/C=C\C/C=C\C/C=C\CCCC(=O)O [EPA, eicosapentaenoic acid] | 6/10 | marginally efficacious
